Taken from: PubChem BioAssay AID652243 (Drosophila RNAi Screening Center, 2013)
In all, the deposit lists about 24,000 reagents; shown is an unselected part of those with a known target gene and a result. Over the whole deposit, 246 (1%) got an active call. 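Plates not normalised; calls are printed but the firefly/Renilla ratio behind them is not deposited; fold cut for lowering reported inconsistently.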 Raw values are not corrected between plates. The record does not give: the amount of reagent.

Purpose: 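Fly regulators of androgen-dependent reporter output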 (primary screen)
System: Drosophila S2R+ cells
Reagent: long dsRNA against Drosophila genes
Timing: 72 h (48 h, then 24 h hormone)
Conditions: synthetic androgen R1881 at 10 nM for 24 h
Measurement: 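Per-well raw luminescence of the androgen-driven firefly reporter and of the Renilla control, two replicates each, without normalisation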
Direction: firefly reporter light: higher = more light from androgen-responsive reporter; Renilla control light: higher = more constitutive control signal (cell number, transfection)
Hit rule: 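Hit when the log firefly-to-Renilla ratio dropped or increased by a fixed fold versus the mean of GFP or LacZ controls across duplicate plates; lowering cut given as 1.5 and as 3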
Calls: active = hit: reporter lowered or raised; inactive = no hit

The opening 2 records, to show the layout:
predicted target | DRSC id | firefly reporter light, replicate 1 | firefly reporter light, replicate 2 | Renilla control light, replicate 1 | Renilla control light, replicate 2 | call
CG4364 | DRSC02742 | 1.57e6 | 9.06e5 | 2.12e6 | 1.63e6 | inactive
CG4364 | DRSC29531 | 3.06e5 | 3.78e5 | 9.16e5 | 9.16e5 | inactive

Results, from the start:
predicted target | DRSC id | firefly reporter light, replicate 1 | firefly reporter light, replicate 2 | Renilla control light, replicate 1 | Renilla control light, replicate 2 | call
CG4364 | DRSC02742 | 1.57e6 | 9.06e5 | 2.12e6 | 1.63e6 | inactive
CG4364 | DRSC29531 | 3.06e5 | 3.78e5 | 9.16e5 | 9.16e5 | inactive
obe | DRSC15736 | 57796 | 1.45e5 | 5.83e5 | 8.04e5 | inactive
CG14370 | DRSC14832 | 1.17e5 | 1.13e5 | 1.87e6 | 2.69e6 | inactive
TwdlH | DRSC14735 | 3.23e5 | 2.47e5 | 3.22e6 | 2.06e6 | inactive
CG9240 | DRSC20177 | 6.27e5 | 4.53e5 | 3.20e6 | 2.36e6 | inactive
CG12861 | DRSC06201 | 1.41e5 | 1.97e5 | 3.22e6 | 3.22e6 | inactive
CG12861 | DRSC21960 | 7.13e5 | 6.34e5 | 1.25e6 | 1.33e6 | inactive
CG12861 | DRSC24847 | 9.69e5 | 9.95e5 | 1.06e6 | 9.87e5 | inactive
twr | DRSC12491 | 44992 | 50708 | 1.13e6 | 8.30e5 | inactive
Svil | DRSC08296 | 7.98e5 | 5.17e5 | 1.54e6 | 1.63e6 | inactive
Svil | DRSC08332 | 56096 | 64178 | 1.01e6 | 9.51e5 | inactive
Svil | DRSC08494 | 60035 | 43045 | 1.08e6 | 9.37e5 | inactive
Svil | DRSC24435 | 7.71e5 | 8.40e5 | 1.12e6 | 1.17e6 | inactive
Svil | DRSC25804 | 2.37e5 | 2.67e5 | 4.43e5 | 4.02e5 | inactive
uno | DRSC07244 | 3.95e5 | 5.13e5 | 2.77e6 | 2.23e6 | inactive
uno | DRSC28407 | 3.41e5 | 4.17e5 | 5.26e5 | 8.74e5 | inactive
mthl2 | DRSC10287 | 1.40e5 | 1.87e5 | 1.48e6 | 1.84e6 | inactive
mthl2 | DRSC27003 | 4.87e5 | 3.27e5 | 8.67e5 | 5.82e5 | inactive
Dh44-R1 | DRSC07172 | 6.18e5 | 8.20e5 | 1.84e6 | 1.75e6 | inactive
Dh44-R1 | DRSC28984 | 3.05e5 | 3.23e5 | 1.13e6 | 1.13e6 | inactive
CG31710 | DRSC01089 | 2.48e5 | 2.70e5 | 8.45e5 | 4.21e5 | inactive
CG31710 | DRSC22863 | 5.49e5 | 9.95e5 | 1.07e6 | 1.53e6 | inactive
CG31710 | DRSC25873 | 3.66e5 | 3.53e5 | 1.26e6 | 1.04e6 | inactive
